{"source": "PubChem BioAssay AID1508597 (Cure First, 2020)", "screen": "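Survival screen with siRNA in ovarian cancer cells derived from patients, with or without rucaparib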 (primary screen)", "cells": "human ovarian carcinoma lines grown from tumours: OCI-P5x (papillary serous) and OCI-C5x (clear cell)", "reagent": "siRNA pool against human genes, 1.25 pmol siRNA per well", "duration": "72 h or 96 h, depending on the cell culture", "challenge": "rucaparib 20 µM (about IC30) or vehicle, present until read-out", "read-out": "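Luminescent ATP-based viability assay read 72 or 96 h after transfection, depending on culture, given as normalised percent viability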", "direction": "viability, normalised: higher = more viable cells remaining", "rule for the call": "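a well counts as a hit if its normalised viability is under 80 percent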", "calls": "active = viability under 80%; inactive = viability 80% or more", "note": "The deposit covers about 2,100 reagents; shown is a part drawn at random. 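Calls flag viability under 80% in either arm, not effects specific to rucaparib; the reference for percent is not stated.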 The record does not give: the 100% reference."}
{"target gene": "NAP1L4", "rucaparib or vehicle": "Rucaparib", "cell line": "OCI-C5x (clear cell)", "technical replicate": "1", "viability, normalised (%)": 43.2, "Call": "active"}
{"target gene": "NAP1L4", "rucaparib or vehicle": "Rucaparib", "cell line": "OCI-C5x (clear cell)", "technical replicate": "2", "viability, normalised (%)": 55.7, "Call": "active"}
{"target gene": "NAP1L4", "rucaparib or vehicle": "Rucaparib", "cell line": "OCI-C5x (clear cell)", "technical replicate": "3", "viability, normalised (%)": 37.8, "Call": "active"}
{"target gene": "NAP1L4", "rucaparib or vehicle": "Rucaparib", "cell line": "OCI-P5x (serous)", "technical replicate": "1", "viability, normalised (%)": 51.6, "Call": "active"}
{"target gene": "NAP1L4", "rucaparib or vehicle": "Rucaparib", "cell line": "OCI-P5x (serous)", "technical replicate": "2", "viability, normalised (%)": 52.1, "Call": "active"}
{"target gene": "NAP1L4", "rucaparib or vehicle": "Rucaparib", "cell line": "OCI-P5x (serous)", "technical replicate": "3", "viability, normalised (%)": 53.3, "Call": "active"}
{"target gene": "NAP1L4", "rucaparib or vehicle": "Vehicle", "cell line": "OCI-C5x (clear cell)", "technical replicate": "1", "viability, normalised (%)": 42.5, "Call": "active"}
{"target gene": "NAP1L4", "rucaparib or vehicle": "Vehicle", "cell line": "OCI-C5x (clear cell)", "technical replicate": "2", "viability, normalised (%)": 36.1, "Call": "active"}
{"target gene": "NAP1L4", "rucaparib or vehicle": "Vehicle", "cell line": "OCI-C5x (clear cell)", "technical replicate": "3", "viability, normalised (%)": 48.3, "Call": "active"}
{"target gene": "NAP1L4", "rucaparib or vehicle": "Vehicle", "cell line": "OCI-P5x (serous)", "technical replicate": "1", "viability, normalised (%)": 44.2, "Call": "active"}
{"target gene": "NAP1L4", "rucaparib or vehicle": "Vehicle", "cell line": "OCI-P5x (serous)", "technical replicate": "2", "viability, normalised (%)": 55.6, "Call": "active"}
{"target gene": "NAP1L4", "rucaparib or vehicle": "Vehicle", "cell line": "OCI-P5x (serous)", "technical replicate": "3", "viability, normalised (%)": 62.2, "Call": "active"}
{"target gene": "ZDHHC17", "rucaparib or vehicle": "Rucaparib", "cell line": "OCI-C5x (clear cell)", "technical replicate": "1", "viability, normalised (%)": 50.8, "Call": "active"}
{"target gene": "ZDHHC17", "rucaparib or vehicle": "Rucaparib", "cell line": "OCI-C5x (clear cell)", "technical replicate": "2", "viability, normalised (%)": 34.3, "Call": "active"}
{"target gene": "ZDHHC17", "rucaparib or vehicle": "Rucaparib", "cell line": "OCI-C5x (clear cell)", "technical replicate": "3", "viability, normalised (%)": 36.8, "Call": "active"}
{"target gene": "ZDHHC17", "rucaparib or vehicle": "Rucaparib", "cell line": "OCI-P5x (serous)", "technical replicate": "1", "viability, normalised (%)": 39.4, "Call": "active"}
{"target gene": "ZDHHC17", "rucaparib or vehicle": "Rucaparib", "cell line": "OCI-P5x (serous)", "technical replicate": "2", "viability, normalised (%)": 43.1, "Call": "active"}
{"target gene": "ZDHHC17", "rucaparib or vehicle": "Rucaparib", "cell line": "OCI-P5x (serous)", "technical replicate": "3", "viability, normalised (%)": 45.1, "Call": "active"}
{"target gene": "ZDHHC17", "rucaparib or vehicle": "Vehicle", "cell line": "OCI-C5x (clear cell)", "technical replicate": "1", "viability, normalised (%)": 42.1, "Call": "active"}
{"target gene": "ZDHHC17", "rucaparib or vehicle": "Vehicle", "cell line": "OCI-C5x (clear cell)", "technical replicate": "2", "viability, normalised (%)": 38.7, "Call": "active"}
{"target gene": "ZDHHC17", "rucaparib or vehicle": "Vehicle", "cell line": "OCI-C5x (clear cell)", "technical replicate": "3", "viability, normalised (%)": 47.1, "Call": "active"}
{"target gene": "ZDHHC17", "rucaparib or vehicle": "Vehicle", "cell line": "OCI-P5x (serous)", "technical replicate": "1", "viability, normalised (%)": 56.4, "Call": "active"}
{"target gene": "ZDHHC17", "rucaparib or vehicle": "Vehicle", "cell line": "OCI-P5x (serous)", "technical replicate": "2", "viability, normalised (%)": 57.4, "Call": "active"}
{"target gene": "ZDHHC17", "rucaparib or vehicle": "Vehicle", "cell line": "OCI-P5x (serous)", "technical replicate": "3", "viability, normalised (%)": 78.3, "Call": "active"}

Ordered by “viability, normalised (%)” (highest first): some entries from above.
{"target gene": "NAP1L4", "rucaparib or vehicle": "Vehicle", "cell line": "OCI-P5x (serous)", "technical replicate": "3", "viability, normalised (%)": 62.2, "Call": "active"}
{"target gene": "NAP1L4", "rucaparib or vehicle": "Vehicle", "cell line": "OCI-P5x (serous)", "technical replicate": "2", "viability, normalised (%)": 55.6, "Call": "active"}
{"target gene": "ZDHHC17", "rucaparib or vehicle": "Rucaparib", "cell line": "OCI-C5x (clear cell)", "technical replicate": "1", "viability, normalised (%)": 50.8, "Call": "active"}
{"target gene": "ZDHHC17", "rucaparib or vehicle": "Rucaparib", "cell line": "OCI-P5x (serous)", "technical replicate": "2", "viability, normalised (%)": 43.1, "Call": "active"}
{"target gene": "ZDHHC17", "rucaparib or vehicle": "Rucaparib", "cell line": "OCI-P5x (serous)", "technical replicate": "1", "viability, normalised (%)": 39.4, "Call": "active"}
{"target gene": "ZDHHC17", "rucaparib or vehicle": "Rucaparib", "cell line": "OCI-C5x (clear cell)", "technical replicate": "3", "viability, normalised (%)": 36.8, "Call": "active"}
{"target gene": "ZDHHC17", "rucaparib or vehicle": "Rucaparib", "cell line": "OCI-C5x (clear cell)", "technical replicate": "2", "viability, normalised (%)": 34.3, "Call": "active"}

Further records follow:
{"target gene": "MPP1", "rucaparib or vehicle": "Rucaparib", "cell line": "OCI-C5x (clear cell)", "technical replicate": "1", "viability, normalised (%)": 68.8, "Call": "active"}
{"target gene": "MPP1", "rucaparib or vehicle": "Rucaparib", "cell line": "OCI-C5x (clear cell)", "technical replicate": "2", "viability, normalised (%)": 66.6, "Call": "active"}
{"target gene": "MPP1", "rucaparib or vehicle": "Rucaparib", "cell line": "OCI-C5x (clear cell)", "technical replicate": "3", "viability, normalised (%)": 48.7, "Call": "active"}
{"target gene": "MPP1", "rucaparib or vehicle": "Rucaparib", "cell line": "OCI-P5x (serous)", "technical replicate": "1", "viability, normalised (%)": 99.9, "Call": "inactive"}
{"target gene": "MPP1", "rucaparib or vehicle": "Rucaparib", "cell line": "OCI-P5x (serous)", "technical replicate": "2", "viability, normalised (%)": 104, "Call": "inactive"}
{"target gene": "MPP1", "rucaparib or vehicle": "Rucaparib", "cell line": "OCI-P5x (serous)", "technical replicate": "3", "viability, normalised (%)": 88, "Call": "inactive"}
{"target gene": "MPP1", "rucaparib or vehicle": "Vehicle", "cell line": "OCI-C5x (clear cell)", "technical replicate": "1", "viability, normalised (%)": 78.7, "Call": "active"}
{"target gene": "MPP1", "rucaparib or vehicle": "Vehicle", "cell line": "OCI-C5x (clear cell)", "technical replicate": "2", "viability, normalised (%)": 71.2, "Call": "active"}
{"target gene": "MPP1", "rucaparib or vehicle": "Vehicle", "cell line": "OCI-C5x (clear cell)", "technical replicate": "3", "viability, normalised (%)": 63.1, "Call": "active"}
{"target gene": "MPP1", "rucaparib or vehicle": "Vehicle", "cell line": "OCI-P5x (serous)", "technical replicate": "1", "viability, normalised (%)": 85, "Call": "inactive"}
{"target gene": "MPP1", "rucaparib or vehicle": "Vehicle", "cell line": "OCI-P5x (serous)", "technical replicate": "2", "viability, normalised (%)": 76.7, "Call": "active"}
{"target gene": "MPP1", "rucaparib or vehicle": "Vehicle", "cell line": "OCI-P5x (serous)", "technical replicate": "3", "viability, normalised (%)": 72.2, "Call": "active"}
{"target gene": "KPNA2", "rucaparib or vehicle": "Rucaparib", "cell line": "OCI-C5x (clear cell)", "technical replicate": "1", "viability, normalised (%)": 61.8, "Call": "active"}
{"target gene": "KPNA2", "rucaparib or vehicle": "Rucaparib", "cell line": "OCI-C5x (clear cell)", "technical replicate": "2", "viability, normalised (%)": 63.6, "Call": "active"}
{"target gene": "KPNA2", "rucaparib or vehicle": "Rucaparib", "cell line": "OCI-C5x (clear cell)", "technical replicate": "3", "viability, normalised (%)": 69.8, "Call": "active"}
{"target gene": "KPNA2", "rucaparib or vehicle": "Rucaparib", "cell line": "OCI-P5x (serous)", "technical replicate": "1", "viability, normalised (%)": 89.1, "Call": "inactive"}
{"target gene": "KPNA2", "rucaparib or vehicle": "Rucaparib", "cell line": "OCI-P5x (serous)", "technical replicate": "2", "viability, normalised (%)": 110, "Call": "inactive"}
{"target gene": "KPNA2", "rucaparib or vehicle": "Rucaparib", "cell line": "OCI-P5x (serous)", "technical replicate": "3", "viability, normalised (%)": 95.2, "Call": "inactive"}
{"target gene": "KPNA2", "rucaparib or vehicle": "Vehicle", "cell line": "OCI-C5x (clear cell)", "technical replicate": "1", "viability, normalised (%)": 86.4, "Call": "inactive"}
{"target gene": "KPNA2", "rucaparib or vehicle": "Vehicle", "cell line": "OCI-C5x (clear cell)", "technical replicate": "2", "viability, normalised (%)": 68.4, "Call": "active"}
{"target gene": "KPNA2", "rucaparib or vehicle": "Vehicle", "cell line": "OCI-C5x (clear cell)", "technical replicate": "3", "viability, normalised (%)": 58.7, "Call": "active"}
{"target gene": "KPNA2", "rucaparib or vehicle": "Vehicle", "cell line": "OCI-P5x (serous)", "technical replicate": "1", "viability, normalised (%)": 110, "Call": "inactive"}
{"target gene": "KPNA2", "rucaparib or vehicle": "Vehicle", "cell line": "OCI-P5x (serous)", "technical replicate": "2", "viability, normalised (%)": 92.9, "Call": "inactive"}
{"target gene": "KPNA2", "rucaparib or vehicle": "Vehicle", "cell line": "OCI-P5x (serous)", "technical replicate": "3", "viability, normalised (%)": 93.3, "Call": "inactive"}
